The source of these data is PMC12404741.

Chains of the proteins cited; added tags and fusions are not shown.
UniProt O00270: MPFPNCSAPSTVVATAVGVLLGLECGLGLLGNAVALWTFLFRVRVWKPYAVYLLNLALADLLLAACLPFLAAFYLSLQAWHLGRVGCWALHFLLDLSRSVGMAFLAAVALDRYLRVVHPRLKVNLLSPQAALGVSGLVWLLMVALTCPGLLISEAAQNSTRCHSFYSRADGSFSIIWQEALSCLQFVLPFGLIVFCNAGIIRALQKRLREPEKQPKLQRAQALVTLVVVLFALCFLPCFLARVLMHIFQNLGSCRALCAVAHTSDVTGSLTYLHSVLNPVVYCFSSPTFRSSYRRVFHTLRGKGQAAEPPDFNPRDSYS
UniProt P08754: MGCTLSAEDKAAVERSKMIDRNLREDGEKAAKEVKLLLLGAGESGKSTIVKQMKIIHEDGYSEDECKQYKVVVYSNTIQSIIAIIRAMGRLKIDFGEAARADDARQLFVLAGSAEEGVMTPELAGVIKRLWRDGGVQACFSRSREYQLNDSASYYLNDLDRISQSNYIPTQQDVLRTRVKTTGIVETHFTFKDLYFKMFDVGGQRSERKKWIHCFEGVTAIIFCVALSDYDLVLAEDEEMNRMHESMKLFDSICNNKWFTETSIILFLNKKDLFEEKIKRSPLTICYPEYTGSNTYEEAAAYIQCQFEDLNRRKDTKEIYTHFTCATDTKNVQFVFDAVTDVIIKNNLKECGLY

These are yes or no findings as the source states them, for the method shown. Binding seen in cells or lysates may run through a third protein. Some entries that bind do so weakly or less than the wild type.

For assay [1], the target named is GPR31 (GST pull-down) (human) (UniProt O00270). Briefly: pull-down; GST-fusion protein pull-down of GPR31 and GNAI3; no further details shown.
Assay [2] addresses GPR31 (GPR31-WT) (human) (UniProt O00270). Briefly: co-IP; HEK293T cells transfected 24 h; IP lysis buffer (20 mM Tris-HCl, 150 mM NaCl, 1 mM EDTA, 1% NP-40, pH 7.4); protein A/G agarose beads and specific antibodies 4 h at 4°C; Western blot; some panels with or without G4451. In general terms: In western blotting, separated proteins are transferred to a membrane and probed.

Take “Gαi3 (GNAI3) (GST pull-down) (from UniProt P08754 1-354)”: the binding entry in assay [1] is recorded as “binds”.
For “Gαi3 (GNAI3) (from UniProt P08754 1-354)”, the binding result in assay [2] is listed as “binds”.
